The source of these data is PMC4824069.

By UniProt entry, the sequences of proteins in these tests, tags left out. Residues count along the entry.
UniProt Q5T4S7: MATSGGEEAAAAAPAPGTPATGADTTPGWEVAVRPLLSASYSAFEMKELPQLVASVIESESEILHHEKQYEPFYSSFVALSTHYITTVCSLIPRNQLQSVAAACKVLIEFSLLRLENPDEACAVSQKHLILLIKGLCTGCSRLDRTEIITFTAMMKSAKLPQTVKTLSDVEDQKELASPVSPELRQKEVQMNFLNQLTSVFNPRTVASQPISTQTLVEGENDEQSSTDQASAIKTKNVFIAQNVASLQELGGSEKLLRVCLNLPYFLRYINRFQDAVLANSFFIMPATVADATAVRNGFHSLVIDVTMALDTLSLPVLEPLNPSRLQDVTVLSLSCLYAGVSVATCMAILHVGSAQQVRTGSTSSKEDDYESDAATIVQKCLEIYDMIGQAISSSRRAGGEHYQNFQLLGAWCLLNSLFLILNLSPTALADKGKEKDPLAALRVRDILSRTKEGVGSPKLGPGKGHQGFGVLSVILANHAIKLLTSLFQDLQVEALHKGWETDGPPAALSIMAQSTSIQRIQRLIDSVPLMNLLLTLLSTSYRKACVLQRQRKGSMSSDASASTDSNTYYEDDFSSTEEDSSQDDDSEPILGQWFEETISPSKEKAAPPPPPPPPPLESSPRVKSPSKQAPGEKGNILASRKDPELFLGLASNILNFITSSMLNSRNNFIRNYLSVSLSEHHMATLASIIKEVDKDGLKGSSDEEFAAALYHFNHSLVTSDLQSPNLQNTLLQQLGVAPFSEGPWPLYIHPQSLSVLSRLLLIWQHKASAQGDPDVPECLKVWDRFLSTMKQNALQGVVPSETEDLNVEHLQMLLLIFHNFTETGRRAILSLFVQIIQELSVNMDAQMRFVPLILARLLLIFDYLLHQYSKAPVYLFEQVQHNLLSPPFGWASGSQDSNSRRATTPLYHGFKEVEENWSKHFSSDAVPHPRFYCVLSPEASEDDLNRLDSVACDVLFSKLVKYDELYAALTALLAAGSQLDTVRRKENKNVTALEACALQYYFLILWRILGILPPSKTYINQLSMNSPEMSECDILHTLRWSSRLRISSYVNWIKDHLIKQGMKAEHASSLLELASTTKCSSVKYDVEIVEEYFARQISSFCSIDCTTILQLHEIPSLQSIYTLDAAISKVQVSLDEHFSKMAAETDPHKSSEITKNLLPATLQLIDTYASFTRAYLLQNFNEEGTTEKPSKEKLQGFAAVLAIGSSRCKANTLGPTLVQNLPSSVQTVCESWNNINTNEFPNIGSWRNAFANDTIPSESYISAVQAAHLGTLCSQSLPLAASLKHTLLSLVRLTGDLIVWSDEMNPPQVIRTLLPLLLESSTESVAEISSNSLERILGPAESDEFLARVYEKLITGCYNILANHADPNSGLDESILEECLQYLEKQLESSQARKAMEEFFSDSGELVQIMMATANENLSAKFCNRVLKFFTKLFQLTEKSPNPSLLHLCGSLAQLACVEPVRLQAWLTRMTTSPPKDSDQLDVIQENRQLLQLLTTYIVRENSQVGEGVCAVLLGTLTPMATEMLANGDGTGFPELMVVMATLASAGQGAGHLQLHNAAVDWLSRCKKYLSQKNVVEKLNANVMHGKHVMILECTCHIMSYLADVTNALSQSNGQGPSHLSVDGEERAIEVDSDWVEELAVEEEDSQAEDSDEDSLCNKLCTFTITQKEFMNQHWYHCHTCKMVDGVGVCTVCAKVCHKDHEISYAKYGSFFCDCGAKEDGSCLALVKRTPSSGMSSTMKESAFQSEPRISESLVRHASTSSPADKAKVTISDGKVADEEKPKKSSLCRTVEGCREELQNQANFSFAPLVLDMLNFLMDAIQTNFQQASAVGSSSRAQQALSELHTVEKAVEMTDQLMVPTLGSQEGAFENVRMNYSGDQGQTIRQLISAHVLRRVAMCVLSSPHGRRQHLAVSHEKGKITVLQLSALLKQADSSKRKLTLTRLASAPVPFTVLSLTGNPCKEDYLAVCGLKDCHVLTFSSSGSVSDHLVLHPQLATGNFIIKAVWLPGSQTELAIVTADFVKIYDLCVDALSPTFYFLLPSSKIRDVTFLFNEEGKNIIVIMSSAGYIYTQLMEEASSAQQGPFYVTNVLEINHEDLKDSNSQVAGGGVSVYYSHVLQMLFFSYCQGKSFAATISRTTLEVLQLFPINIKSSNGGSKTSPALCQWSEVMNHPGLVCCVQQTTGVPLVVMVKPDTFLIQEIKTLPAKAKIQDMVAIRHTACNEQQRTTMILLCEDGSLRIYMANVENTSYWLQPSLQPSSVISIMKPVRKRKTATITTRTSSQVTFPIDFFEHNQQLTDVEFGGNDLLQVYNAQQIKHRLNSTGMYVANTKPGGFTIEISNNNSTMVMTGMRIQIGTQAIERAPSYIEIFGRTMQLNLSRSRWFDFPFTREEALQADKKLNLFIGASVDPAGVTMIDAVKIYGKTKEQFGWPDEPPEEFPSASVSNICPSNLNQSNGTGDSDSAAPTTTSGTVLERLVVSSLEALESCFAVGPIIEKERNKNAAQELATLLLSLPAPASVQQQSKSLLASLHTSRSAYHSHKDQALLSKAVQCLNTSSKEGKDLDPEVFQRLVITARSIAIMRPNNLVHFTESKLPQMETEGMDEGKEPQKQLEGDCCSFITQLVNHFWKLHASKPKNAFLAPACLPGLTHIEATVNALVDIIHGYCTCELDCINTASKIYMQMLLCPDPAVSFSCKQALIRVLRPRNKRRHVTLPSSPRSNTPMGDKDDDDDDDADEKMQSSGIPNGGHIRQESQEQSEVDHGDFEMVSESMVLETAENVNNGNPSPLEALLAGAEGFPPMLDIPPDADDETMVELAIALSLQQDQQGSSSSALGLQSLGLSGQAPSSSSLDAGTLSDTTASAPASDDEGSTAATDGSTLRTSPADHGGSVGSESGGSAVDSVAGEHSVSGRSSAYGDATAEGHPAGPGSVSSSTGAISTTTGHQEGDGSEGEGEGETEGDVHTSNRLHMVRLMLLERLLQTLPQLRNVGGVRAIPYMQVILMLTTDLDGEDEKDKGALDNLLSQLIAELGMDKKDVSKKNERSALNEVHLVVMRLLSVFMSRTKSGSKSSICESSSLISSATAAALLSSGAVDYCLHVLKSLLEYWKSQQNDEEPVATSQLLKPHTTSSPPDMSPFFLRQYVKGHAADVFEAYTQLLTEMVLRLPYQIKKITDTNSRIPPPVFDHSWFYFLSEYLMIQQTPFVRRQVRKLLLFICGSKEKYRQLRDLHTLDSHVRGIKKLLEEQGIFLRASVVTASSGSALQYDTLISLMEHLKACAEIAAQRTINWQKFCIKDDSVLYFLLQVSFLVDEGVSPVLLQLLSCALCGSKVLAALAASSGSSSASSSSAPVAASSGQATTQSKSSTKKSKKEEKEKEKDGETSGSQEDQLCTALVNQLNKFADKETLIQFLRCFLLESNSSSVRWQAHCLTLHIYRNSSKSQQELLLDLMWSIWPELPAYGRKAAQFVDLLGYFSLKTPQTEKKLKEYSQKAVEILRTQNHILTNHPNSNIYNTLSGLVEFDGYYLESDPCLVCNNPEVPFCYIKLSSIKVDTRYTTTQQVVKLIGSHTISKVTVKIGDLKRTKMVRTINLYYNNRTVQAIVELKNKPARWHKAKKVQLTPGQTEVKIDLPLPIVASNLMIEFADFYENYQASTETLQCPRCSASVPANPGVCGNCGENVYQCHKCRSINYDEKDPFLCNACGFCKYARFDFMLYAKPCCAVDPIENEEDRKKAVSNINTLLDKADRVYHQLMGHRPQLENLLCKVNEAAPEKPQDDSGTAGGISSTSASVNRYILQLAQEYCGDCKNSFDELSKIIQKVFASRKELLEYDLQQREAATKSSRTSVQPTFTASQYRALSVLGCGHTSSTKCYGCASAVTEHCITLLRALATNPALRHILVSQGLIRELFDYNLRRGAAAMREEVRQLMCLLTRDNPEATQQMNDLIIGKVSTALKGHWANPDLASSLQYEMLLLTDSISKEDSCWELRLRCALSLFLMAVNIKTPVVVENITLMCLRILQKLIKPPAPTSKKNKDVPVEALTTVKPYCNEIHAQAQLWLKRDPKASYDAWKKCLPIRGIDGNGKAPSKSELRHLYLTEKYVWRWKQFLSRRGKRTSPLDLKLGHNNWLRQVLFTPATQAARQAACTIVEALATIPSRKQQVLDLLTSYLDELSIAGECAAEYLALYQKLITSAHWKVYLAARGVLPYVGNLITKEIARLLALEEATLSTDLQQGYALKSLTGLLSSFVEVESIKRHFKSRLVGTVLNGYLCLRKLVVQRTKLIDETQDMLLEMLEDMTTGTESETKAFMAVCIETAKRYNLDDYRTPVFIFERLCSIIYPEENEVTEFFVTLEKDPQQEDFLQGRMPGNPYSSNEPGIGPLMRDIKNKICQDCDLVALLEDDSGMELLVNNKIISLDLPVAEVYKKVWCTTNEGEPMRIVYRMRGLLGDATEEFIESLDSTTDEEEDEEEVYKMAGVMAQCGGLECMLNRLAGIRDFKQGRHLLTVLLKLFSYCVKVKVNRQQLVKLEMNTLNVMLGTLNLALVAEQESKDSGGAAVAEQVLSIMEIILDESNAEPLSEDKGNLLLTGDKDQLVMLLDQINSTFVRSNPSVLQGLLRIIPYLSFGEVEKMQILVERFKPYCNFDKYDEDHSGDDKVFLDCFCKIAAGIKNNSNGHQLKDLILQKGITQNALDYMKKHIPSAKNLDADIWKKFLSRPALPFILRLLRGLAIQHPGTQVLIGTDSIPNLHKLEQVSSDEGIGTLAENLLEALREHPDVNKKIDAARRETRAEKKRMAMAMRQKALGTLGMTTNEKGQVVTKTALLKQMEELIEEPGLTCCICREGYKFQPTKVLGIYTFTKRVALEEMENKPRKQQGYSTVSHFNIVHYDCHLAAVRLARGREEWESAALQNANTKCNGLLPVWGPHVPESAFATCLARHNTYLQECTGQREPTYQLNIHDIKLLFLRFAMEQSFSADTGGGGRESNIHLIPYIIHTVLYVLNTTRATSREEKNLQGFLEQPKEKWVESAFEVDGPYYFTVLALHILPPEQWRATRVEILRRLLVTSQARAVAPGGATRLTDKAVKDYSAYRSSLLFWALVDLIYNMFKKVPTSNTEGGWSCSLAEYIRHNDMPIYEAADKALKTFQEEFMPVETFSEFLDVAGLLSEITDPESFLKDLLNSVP
UniProt Q9Y3E1: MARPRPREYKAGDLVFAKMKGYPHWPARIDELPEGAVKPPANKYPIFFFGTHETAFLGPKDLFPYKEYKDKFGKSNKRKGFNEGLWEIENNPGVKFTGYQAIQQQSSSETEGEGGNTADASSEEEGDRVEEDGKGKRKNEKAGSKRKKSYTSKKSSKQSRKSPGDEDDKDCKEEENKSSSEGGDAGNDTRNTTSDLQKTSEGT
UniProt Q05639: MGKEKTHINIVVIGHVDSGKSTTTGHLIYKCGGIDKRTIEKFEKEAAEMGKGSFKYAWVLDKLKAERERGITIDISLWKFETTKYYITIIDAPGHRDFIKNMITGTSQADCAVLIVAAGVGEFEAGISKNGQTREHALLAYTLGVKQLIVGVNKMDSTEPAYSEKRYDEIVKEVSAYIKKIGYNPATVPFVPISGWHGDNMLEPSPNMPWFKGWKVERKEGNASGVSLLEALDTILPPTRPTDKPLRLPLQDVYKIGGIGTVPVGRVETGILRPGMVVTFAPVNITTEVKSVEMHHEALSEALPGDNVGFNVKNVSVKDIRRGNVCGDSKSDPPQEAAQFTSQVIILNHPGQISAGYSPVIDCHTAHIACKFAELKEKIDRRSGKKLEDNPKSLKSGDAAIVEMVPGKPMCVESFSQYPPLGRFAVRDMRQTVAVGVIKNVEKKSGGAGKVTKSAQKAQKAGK
UniProt O95433: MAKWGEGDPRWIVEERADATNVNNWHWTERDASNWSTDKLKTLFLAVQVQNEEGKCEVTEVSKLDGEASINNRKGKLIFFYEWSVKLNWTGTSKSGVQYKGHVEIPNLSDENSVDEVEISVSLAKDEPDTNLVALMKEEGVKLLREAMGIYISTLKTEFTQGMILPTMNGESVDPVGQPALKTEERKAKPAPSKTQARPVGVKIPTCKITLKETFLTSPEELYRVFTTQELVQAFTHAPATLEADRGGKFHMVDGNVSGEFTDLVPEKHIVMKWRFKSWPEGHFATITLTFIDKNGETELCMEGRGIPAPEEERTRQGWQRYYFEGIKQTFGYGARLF
UniProt Q3ZCQ8, residues 45-353: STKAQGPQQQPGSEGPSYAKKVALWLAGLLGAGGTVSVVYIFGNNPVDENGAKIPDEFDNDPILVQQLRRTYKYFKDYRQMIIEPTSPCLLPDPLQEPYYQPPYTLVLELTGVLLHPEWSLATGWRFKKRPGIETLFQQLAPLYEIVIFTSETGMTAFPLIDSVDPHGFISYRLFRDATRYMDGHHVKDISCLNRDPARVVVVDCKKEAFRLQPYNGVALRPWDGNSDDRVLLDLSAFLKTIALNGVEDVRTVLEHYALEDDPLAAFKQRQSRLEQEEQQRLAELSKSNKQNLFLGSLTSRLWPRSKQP

First the molecules themselves.
T1: DPF3a, bait protein of the tandem affinity purification (UniProt Q92784)
T1 sequence: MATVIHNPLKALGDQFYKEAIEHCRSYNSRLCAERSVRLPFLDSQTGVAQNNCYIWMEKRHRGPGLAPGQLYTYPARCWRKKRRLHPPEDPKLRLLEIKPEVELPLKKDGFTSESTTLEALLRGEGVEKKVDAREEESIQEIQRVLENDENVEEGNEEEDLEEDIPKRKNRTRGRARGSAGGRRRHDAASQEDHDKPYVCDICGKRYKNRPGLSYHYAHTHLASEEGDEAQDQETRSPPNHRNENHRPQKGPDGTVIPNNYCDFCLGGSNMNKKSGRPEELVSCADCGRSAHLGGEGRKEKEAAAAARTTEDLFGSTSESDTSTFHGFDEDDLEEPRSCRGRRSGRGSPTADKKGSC

B1: Synaptic glycoprotein SC2 (protein, UniProt Q9NZ01 1-308)
chain: MKHYEVEILDAKTREKLCFLDKVEPHATIAEIKNLFTKTHPQWYPARQSLRLDPKGKSLKDEDVLQKLPVGTTATLYFRDLGAQISWVTVFLTEYAGPLFIYLLFYFRVPFIYGHKYDFTSSRHTVVHLACICHSFHYIKRLLETLFVHRFSHGTMPLRNIFKNCTYYWGFAAWMAYYINHPLYTPPTYGAQQVKLALAIFVICQLGNFSIHMALRDLRPAGSKTRKIPYPTKNPFTWLFLLVSCPNYTYEVGSWIGFAIMTQCLPVALFSLVGFTQMTIWAKGKHRSYLKEFRDYPPLRMPIIPFLL
B2: Exportin-T (protein, UniProt O43592 1-962)
chain: MDEQALLGLNPNADSDFRQRALAYFEQLKISPDAWQVCAEALAQRTYSDDHVKFFCFQVLEHQVKYKYSELTTVQQQLIRETLISWLQAQMLNPQPEKTFIRNKAAQVFALLFVTEYLTKWPKFFFDILSVVDLNPRGVDLYLRILMAIDSELVDRDVVHTSEEARRNTLIKDTMREQCIPNLVESWYQILQNYQFTNSEVTCQCLEVVGAYVSWIDLSLIANDRFINMLLGHMSIEVLREEACDCLFEVVNKGMDPVDKMKLVESLCQVLQSAGFFSIDQEEDVDFLARFSKLVNGMGQSLIVSWSKLIKNGDIKNAQEALQAIETKVALMLQLLIHEDDDISSNIIGFCYDYLHILKQLTVLSDQQKANVEAIMLAVMKKLTYDEEYNFENEGEDEAMFVEYRKQLKLLLDRLAQVSPELLLASVRRVFSSTLQNWQTTRFMEVEVAIRLLYMLAEALPVSHGAHFSGDVSKASALQDMMRTLVTSGVSSYQHTSVTLEFFETVVRYEKFFTVEPQHIPCVLMAFLDHRGLRHSSAKVRSRTAYLFSRFVKSLNKQMNPFIEDILNRIQDLLELSPPENGHQSLLSSDDQLFIYETAGVLIVNSEYPAERKQALMRNLLTPLMEKFKILLEKLMLAQDEERQASLADCLNHAVGFASRTSKAFSNKQTVKQCGCSEVYLDCLQTFLPALSCPLQKDILRSGVRTFLHRMIICLEEEVLPFIPSASEHMLKDCEAKDLQEFIPLINQITAKFKIQVSPFLQQMFMPLLHAIFEVLLRPAEENDQSAALEKQMLRRSYFAFLQTVTGSGMSEVIANQGAENVERVLVTVIQGAVEYPDPIAQKTCFIILSKLVELWGGKDGPVGFADFVYKHIVPACFLAPLKQTFDLADAQTVLALSECAVTLKTIHLKRGPECVQYLQQEYLPSLQVAPEIIQEFCQALQQPDAKVFKNYLKVFFQRAKP

Results are given in words; binding and its absence hold for the method and conditions named. Binding seen in cells or lysates may run through a third protein. Here binding means that the protein was enriched with, or labelled near, the bait; the list need not be complete. For some assays here: No binding means not detected with the bait.

The target in one assay is T1, DPF3a, bait protein of the tandem affinity purification. Nature of the assay: affinity purification with mass spectrometry; tandem affinity purification of DPF3a or DPF3b from HEK293 cells (cytoplasm), mass spectrometry; hits with Mascot score >40 and at least two matching spectra.
For the molecule B1, the binding result is given as “binds”.

For the next assay, the target named is DPF3b, bait protein of the tandem affinity purification (UniProt Q92784). The description is as above.
For B2, the binding result was “binds”.

The target of a further assay is T1, DPF3a, bait protein of the tandem affinity purification. The description is as above. This is another data set of the same source.
For the molecule “activating signal cointegrator 1 complex subunit 3-like 1 (from UniProt O75643 1-2136)”, the binding entry is given as “binds”. The same measure, in the same setting: the same measure for “Ig kappa chain C region (from UniProt P01834 1-107)”: “binds”; for “Casein kinase II subunit beta (from UniProt P67870 1-215)”: “binds”.

Turning to “Zinc finger UBR1-type protein 1, ubiquitin protein ligase E3 component n-recognin 4 (from UniProt Q5T4S7 1-5183)”, the binding result was “binds”. Same read-out and setting: the same measure for “Casein kinase II subunit alpha (from UniProt P68400 1-391)”: “binds”; for “Apoptosis-inducing factor 1, mitochondrial precursor (from UniProt O95831)”: “binds”. Same read-out and setting: the same measure for “Casein kinase II subunit alpha' (from UniProt P19784 1-350)”: “binds”; for “Heat shock 70 kDa protein 1L (from UniProt P34931 1-641)”: “binds”; for “E3 ubiquitin-protein ligase EDD1 (from UniProt O95071 1-2799)”: “binds”. Still for that read-out and setting: the same measure for “Hepatoma-derived growth factor-related protein 3 (from UniProt Q9Y3E1 1-203)”: “binds”.

A further assay has as its target DPF3b, bait protein of the tandem affinity purification (UniProt Q92784). The description is as above. The source holds these as a separate data set.
On to “Elongation factor 1-alpha 2 (from UniProt Q05639 1-463)”, for which the binding result is listed as “binds”. The same measure, in the same setting: the same measure for “Casein kinase II subunit beta (from UniProt P67870 1-215)”: “no binding”. On the same count and under the same terms, the same measure for “Tubulin alpha-3E chain (from UniProt Q6PEY2 1-450)”: “binds”; for “Activator of 90 kDa heat shock protein ATPase homolog 1 (from UniProt O95433 1-338)”: “binds”; for “Casein kinase II subunit alpha (from UniProt P68400 1-391)”: “no binding”.

As for “Casein kinase II subunit alpha' (from UniProt P19784 1-350)”, the binding entry was “no binding”. The same measure, in the same setting: the same measure for “Import inner membrane translocase subunit TIM50, mitochondrial precursor (from UniProt Q3ZCQ8 45-353)”: “binds”; for “Tubulin alpha-8 chain (from UniProt Q9NY65 1-449)”: “binds”.
